Reference: the supplement of paper PMC10689618
The list shows a part of the results. Repeats are few or missing, and single values can be far off.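 Primary human fetal astrocytes engulfed labelled rat cortical synaptosomes, measured as a red/green ratio corrected for calcein live-cell signal and scaled to the plate median. Toxicity meant calcein falling over 30%; decreased phagocytosis meant below 70% of median above 5 µM.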

Tests used:
Human fetal astrocytes [1] = assay: loss of total cells relative to no-compound high-control median (toxicity); higher = more toxic (fewer cells); conditions: 24 h
Human fetal astrocytes [2] = assay: synaptosome phagocytosis (pHrodo/calcein intensity ratio) relative to plate median of data wells; higher = more phagocytosis; conditions: 24 h

| SMILES | loss of total cells (Human fetal astrocytes [1]; 1.39 µM) [%] | loss of total cells (Human fetal astrocytes [1]; 2.78 µM) [%] | loss of total cells (Human fetal astrocytes [1]; 5.56 µM) [%] | loss of total cells (Human fetal astrocytes [1]; 11.11 µM) [%] | loss of total cells (Human fetal astrocytes [1]; 22.22 µM) [%] | synaptosome phagocytosis (Human fetal astrocytes [2]; 1.39 µM) [%] | synaptosome phagocytosis (Human fetal astrocytes [2]; 2.78 µM) [%] | synaptosome phagocytosis (Human fetal astrocytes [2]; 5.56 µM) [%] | synaptosome phagocytosis (Human fetal astrocytes [2]; 11.11 µM) [%] | synaptosome phagocytosis (Human fetal astrocytes [2]; 22.22 µM) [%] |
| --- | --- | --- | --- | --- | --- | --- | --- | --- | --- | --- |
| Cc1cc2cc3c(C)cc(=O)oc3c(C)c2o1 | -18.7 | 6.4 | -7 | 6.6 | 38.6 | 118 | 90.8 | 108 | 104 | 116 |
| COc1ccc(-c2cc(=O)c3c(O)cc(O)c(-c4cc(-c5cc(=O)c6c(O)cc(O)cc6o5)ccc4OC)c3o2)cc1 | -25 | 13.3 | -8.4 | 9 | 5.6 | 84.3 | 96.6 | 50 | 13.1 | 17.2 |
| CCCCCCCCCCCCCCCCCCCCCCO | 19.2 | -8 | -18.3 | 24.5 | -3.3 | 144 | 96.7 | 112 | 113 | 121 |
| Cc1cccc(Nc2ccccc2C(=O)O)c1C | -11.6 | -34.5 | -11.1 | -7.8 | 11.3 | 108 | 99.5 | 90.3 | 74.9 | 108 |
| CCN1CCN(c2cc3c(cc2F)c(=O)c(C(=O)O)cn3C2CC2)CC1 | 9.8 | 10.6 | 23.7 | 51.6 | -5.6 | 70.9 | 106 | 125 | 142 | 120 |
